{"source": "PubChem BioAssay AID1259327 (Drosophila RNAi Screening Center, 2017)", "screen": "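Data from controls in screens of zinc and manganese toxicity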", "cell system": "Drosophila S2R+ cells", "reagent": "long dsRNA against Drosophila genes", "timing": "5 days (water added on day 4, read one day later)", "challenge": "water added as vehicle, no metal, one day before read-out", "measurement": "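Total ATP measured by luciferase light, scaled to plate mean, duplicates averaged, then z-scored across plates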", "scale": "ATP z-score: higher = more total ATP than typical wells; ATP luminescence: higher = more total ATP", "hit rule": "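Called active when the ATP z-score exceeds 1.5 or falls below -1.5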", "meaning of the calls": "active = hit: ATP up or down; inactive = no clear ATP change", "note": "In all, the deposit lists about 3,100 reagents; this is an unselected part. In the full data, 378 (12%) were called active. 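Hits include both directions; z-score sign shows ATP rise or fall; raw luminescence values are not plate-normalised.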 A number with no mark means an inactive call. A plus sign joins genes that one reagent is predicted to hit. Reagent sequences are not shown. Not given: the amount of reagent."}
{"target gene": "PIG-F", "DRSC id": "DRSC11069", "ATP z-score, duplicate mean": -0.291, "ATP luminescence, replicate 1 (RLU)": 8.53e5, "ATP luminescence, replicate 2 (RLU)": 8.62e5}
{"target gene": "PIG-F", "DRSC id": "DRSC27027", "ATP z-score, duplicate mean": -1.19, "ATP luminescence, replicate 1 (RLU)": 8.72e5, "ATP luminescence, replicate 2 (RLU)": 1.04e6}
{"target gene": "MFS18", "DRSC id": "DRSC00452", "ATP z-score, duplicate mean": 0.338, "ATP luminescence, replicate 1 (RLU)": 4.30e5, "ATP luminescence, replicate 2 (RLU)": 5.81e5}
{"target gene": "MFS18", "DRSC id": "DRSC39625", "ATP z-score, duplicate mean": 1.14, "ATP luminescence, replicate 1 (RLU)": 5.90e5, "ATP luminescence, replicate 2 (RLU)": 4.94e5}
{"target gene": "CG1724", "DRSC id": "DRSC20548", "ATP z-score, duplicate mean": -0.96, "ATP luminescence, replicate 1 (RLU)": 6.33e5, "ATP luminescence, replicate 2 (RLU)": 6.44e5}
{"target gene": "CG1724", "DRSC id": "DRSC25668", "ATP z-score, duplicate mean": -0.0225, "ATP luminescence, replicate 1 (RLU)": 8.46e5, "ATP luminescence, replicate 2 (RLU)": 7.96e5}
{"target gene": "Or85c", "DRSC id": "DRSC16766", "ATP z-score, duplicate mean": -0.37, "ATP luminescence, replicate 1 (RLU)": 2.95e5, "ATP luminescence, replicate 2 (RLU)": 6.91e5}
{"target gene": "Or85c", "DRSC id": "DRSC39833", "ATP z-score, duplicate mean": -0.617, "ATP luminescence, replicate 1 (RLU)": 3.45e5, "ATP luminescence, replicate 2 (RLU)": 5.33e5}

An excerpt taken from the entries so far, for reference:
{"target gene": "Or85c", "DRSC id": "DRSC16766", "ATP z-score, duplicate mean": -0.37, "ATP luminescence, replicate 1 (RLU)": 2.95e5, "ATP luminescence, replicate 2 (RLU)": 6.91e5}
{"target gene": "Or85c", "DRSC id": "DRSC39833", "ATP z-score, duplicate mean": -0.617, "ATP luminescence, replicate 1 (RLU)": 3.45e5, "ATP luminescence, replicate 2 (RLU)": 5.33e5}

The list goes on.
{"target gene": "CG30160 + Tsp42Eb", "DRSC id": "DRSC04961", "ATP z-score, duplicate mean": 0.215, "ATP luminescence, replicate 1 (RLU)": 7.19e5, "ATP luminescence, replicate 2 (RLU)": 8.16e5}
{"target gene": "CG30160 + Tsp42Eb", "DRSC id": "DRSC06791", "ATP z-score, duplicate mean": 1.23, "ATP luminescence, replicate 1 (RLU)": 8.57e5, "ATP luminescence, replicate 2 (RLU)": 8.95e5}
{"target gene": "CG10171", "DRSC id": "DRSC09711", "ATP z-score, duplicate mean": -0.503, "ATP luminescence, replicate 1 (RLU)": 6.49e5, "ATP luminescence, replicate 2 (RLU)": 7.06e5}
{"target gene": "CG10171", "DRSC id": "DRSC26279", "ATP z-score, duplicate mean": 0.59, "ATP luminescence, replicate 1 (RLU)": 9.32e5, "ATP luminescence, replicate 2 (RLU)": 9.16e5}
{"target gene": "CG11262", "DRSC id": "DRSC09831", "ATP z-score, duplicate mean": -0.555, "ATP luminescence, replicate 1 (RLU)": 8.62e5, "ATP luminescence, replicate 2 (RLU)": 7.86e5}
{"target gene": "CG11262", "DRSC id": "DRSC39465", "ATP z-score, duplicate mean": -0.344, "ATP luminescence, replicate 1 (RLU)": 4.37e5, "ATP luminescence, replicate 2 (RLU)": 4.24e5}
{"target gene": "CG32447", "DRSC id": "DRSC11732", "ATP z-score, duplicate mean": 0.648, "ATP luminescence, replicate 1 (RLU)": 8.28e5, "ATP luminescence, replicate 2 (RLU)": 7.72e5}
{"target gene": "CG32447", "DRSC id": "DRSC11805", "ATP z-score, duplicate mean": 0.755, "ATP luminescence, replicate 1 (RLU)": 1.03e6, "ATP luminescence, replicate 2 (RLU)": 9.65e5}
